In the assay the target is T1, Flag-Ha tagged HAN11 (UniProt P61962).
T1 sequence: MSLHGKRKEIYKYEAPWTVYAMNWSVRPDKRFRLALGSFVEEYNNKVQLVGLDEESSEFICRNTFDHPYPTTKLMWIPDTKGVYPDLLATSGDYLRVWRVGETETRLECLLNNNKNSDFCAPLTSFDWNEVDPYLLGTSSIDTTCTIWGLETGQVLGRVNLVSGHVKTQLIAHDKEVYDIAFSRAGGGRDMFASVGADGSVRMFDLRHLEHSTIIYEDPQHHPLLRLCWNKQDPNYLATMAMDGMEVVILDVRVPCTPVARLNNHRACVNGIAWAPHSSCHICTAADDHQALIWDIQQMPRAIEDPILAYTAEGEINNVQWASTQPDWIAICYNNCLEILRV
Kind of assay: affinity purification with mass spectrometry; double-tag purification of Flag-Ha tagged HAN11 from HEK293 cells with anti-Flag (M2) and anti-HA (12CA5) antibodies; mass spectrometry of co-purified proteins.

These are yes or no findings as the source states them, for the method shown. In cells and extracts the contact can be indirect. These calls come from enrichment with a bait or labelling near it, and not all partners need be listed. Tags and fused reporters may be left off the sequences shown.

B1: REST (Neuron-Restrictive Silencing Factor) (protein, UniProt Q13127 1-1097)
chain: MATQVMGQSSGGGGLFTSSGNIGMALPNDMYDLHDLSKAELAAPQLIMLANVALTGEVNGSCCDYLVGEERQMAELMPVGDNNFSDSEEGEGLEESADIKGEPHGLENMELRSLELSVVEPQPVFEASGAPDIYSSNKDLPPETPGAEDKGKSSKTKPFRCKPCQYEAESEEQFVHHIRVHSAKKFFVEESAEKQAKARESGSSTAEEGDFSKGPIRCDRCGYNTNRYDHYTAHLKHHTRAGDNERVYKCIICTYTTVSEYHWRKHLRNHFPRKVYTCGKCNYFSDRKNNYVQHVRTHTGERPYKCELCPYSSSQKTHLTRHMRTHSGEKPFKCDQCSYVASNQHEVTRHARQVHNGPKPLNCPHCDYKTADRSNFKKHVELHVNPRQFNCPVCDYAASKKCNLQYHFKSKHPTCPNKTMDVSKVKLKKTKKREADLPDNITNEKTEIEQTKIKGDVAGKKNEKSVKAEKRDVSKEKKPSNNVSVIQVTTRTRKSVTEVKEMDVHTGSNSEKFSKTKKSKRKLEVDSHSLHGPVNDEESSTKKKKKVESKSKNNSQEVPKGDSKVEENKKQNTCMKKSTKKKTLKNKSSKKSSKPPQKEPVEKGSAQMDPPQMGPAPTEAVQKGPVQVEPPPPMEHAQMEGAQIRPAPDEPVQMEVVQEGPAQKELLPPVEPAQMVGAQIVLAHMELPPPMETAQTEVAQMGPAPMEPAQMEVAQVESAPMQVVQKEPVQMELSPPMEVVQKEPVQIELSPPMEVVQKEPVKIELSPPIEVVQKEPVQMELSPPMGVVQKEPAQREPPPPREPPLHMEPISKKPPLRKDKKEKSNMQSERARKEQVLIEVGLVPVKDSWLLKESVSTEDLSPPSPPLPKENLREEASGDQKLLNTGEGNKEAPLQKVGAEEADESLPGLAANINESTHISSSGQNLNTPEGETLNGKHQTDSIVCEMKMDTDQNTRENLTGINSTVEEPVSPMLPPSAVEEREAVSKTALASPPATMAANESQEIDEDEGIHSHEGSDLSDNMSEGSDDSGLHGARPVPQESSRKNAKEALAVKAAKGDFVCIFCDRSFRKGKDYSKHLNRHLVNVYYLEEAAQGQE
With B1, the binding result is given as “binds”.

For the origin of these results see article PMC3291536.
